Test results: the supplement of paper PMC10849652
The list shows a part of the results.

Amino acid sequences for entries named in this document (tags omitted). A change or cut given only in a name is not applied to a line headed by its entry.
UniProt Q9BWH6: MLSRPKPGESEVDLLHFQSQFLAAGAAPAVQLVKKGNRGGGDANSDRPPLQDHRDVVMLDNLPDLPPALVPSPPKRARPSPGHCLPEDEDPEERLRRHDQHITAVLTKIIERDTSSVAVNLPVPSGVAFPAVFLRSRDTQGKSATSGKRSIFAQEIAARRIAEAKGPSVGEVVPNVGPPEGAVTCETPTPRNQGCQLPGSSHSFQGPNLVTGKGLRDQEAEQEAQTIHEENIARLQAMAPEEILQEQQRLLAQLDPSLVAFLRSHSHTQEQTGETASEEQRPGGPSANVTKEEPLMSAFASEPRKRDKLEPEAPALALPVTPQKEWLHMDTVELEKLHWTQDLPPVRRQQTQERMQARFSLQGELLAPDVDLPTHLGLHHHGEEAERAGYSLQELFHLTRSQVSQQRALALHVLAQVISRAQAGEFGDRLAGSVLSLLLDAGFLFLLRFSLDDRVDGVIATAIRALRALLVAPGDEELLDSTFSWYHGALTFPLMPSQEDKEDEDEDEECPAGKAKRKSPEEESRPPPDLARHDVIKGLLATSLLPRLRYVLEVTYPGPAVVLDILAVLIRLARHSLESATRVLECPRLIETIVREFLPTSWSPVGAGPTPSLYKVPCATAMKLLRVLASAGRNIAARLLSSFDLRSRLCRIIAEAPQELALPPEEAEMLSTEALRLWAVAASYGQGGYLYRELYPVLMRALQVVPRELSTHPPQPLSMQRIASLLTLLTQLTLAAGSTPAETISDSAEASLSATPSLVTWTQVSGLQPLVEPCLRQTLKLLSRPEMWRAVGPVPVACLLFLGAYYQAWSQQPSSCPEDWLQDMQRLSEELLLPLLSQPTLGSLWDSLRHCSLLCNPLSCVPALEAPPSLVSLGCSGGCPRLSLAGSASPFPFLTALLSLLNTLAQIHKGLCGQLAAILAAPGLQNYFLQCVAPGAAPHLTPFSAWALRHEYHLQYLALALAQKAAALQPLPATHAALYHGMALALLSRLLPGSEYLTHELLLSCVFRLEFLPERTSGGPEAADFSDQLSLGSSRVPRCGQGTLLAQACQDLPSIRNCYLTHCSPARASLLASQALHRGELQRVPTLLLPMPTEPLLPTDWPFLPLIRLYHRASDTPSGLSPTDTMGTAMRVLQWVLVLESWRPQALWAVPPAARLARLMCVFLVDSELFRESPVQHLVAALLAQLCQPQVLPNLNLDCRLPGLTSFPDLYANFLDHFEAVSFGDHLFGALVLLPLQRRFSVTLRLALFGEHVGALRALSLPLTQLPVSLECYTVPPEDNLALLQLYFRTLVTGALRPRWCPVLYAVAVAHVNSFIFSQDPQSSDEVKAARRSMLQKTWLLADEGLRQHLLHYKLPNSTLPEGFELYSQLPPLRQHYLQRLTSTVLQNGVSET
UniProt Q96DB5: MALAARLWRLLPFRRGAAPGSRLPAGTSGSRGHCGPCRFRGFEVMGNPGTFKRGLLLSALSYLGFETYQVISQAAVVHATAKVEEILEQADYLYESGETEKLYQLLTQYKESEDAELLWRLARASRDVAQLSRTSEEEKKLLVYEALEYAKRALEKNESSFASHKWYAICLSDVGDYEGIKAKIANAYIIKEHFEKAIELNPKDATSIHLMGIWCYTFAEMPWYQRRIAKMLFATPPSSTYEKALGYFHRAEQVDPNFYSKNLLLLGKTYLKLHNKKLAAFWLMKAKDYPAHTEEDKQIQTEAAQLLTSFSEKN
UniProt Q9H7B2: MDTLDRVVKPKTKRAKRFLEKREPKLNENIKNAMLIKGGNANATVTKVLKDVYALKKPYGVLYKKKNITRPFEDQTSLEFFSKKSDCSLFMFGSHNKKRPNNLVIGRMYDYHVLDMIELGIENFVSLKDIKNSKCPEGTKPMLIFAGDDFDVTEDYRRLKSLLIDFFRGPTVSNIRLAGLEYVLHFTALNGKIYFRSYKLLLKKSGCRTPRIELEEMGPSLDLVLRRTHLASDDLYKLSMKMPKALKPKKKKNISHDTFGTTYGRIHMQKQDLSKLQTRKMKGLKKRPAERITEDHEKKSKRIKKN
UniProt Q6NUQ1: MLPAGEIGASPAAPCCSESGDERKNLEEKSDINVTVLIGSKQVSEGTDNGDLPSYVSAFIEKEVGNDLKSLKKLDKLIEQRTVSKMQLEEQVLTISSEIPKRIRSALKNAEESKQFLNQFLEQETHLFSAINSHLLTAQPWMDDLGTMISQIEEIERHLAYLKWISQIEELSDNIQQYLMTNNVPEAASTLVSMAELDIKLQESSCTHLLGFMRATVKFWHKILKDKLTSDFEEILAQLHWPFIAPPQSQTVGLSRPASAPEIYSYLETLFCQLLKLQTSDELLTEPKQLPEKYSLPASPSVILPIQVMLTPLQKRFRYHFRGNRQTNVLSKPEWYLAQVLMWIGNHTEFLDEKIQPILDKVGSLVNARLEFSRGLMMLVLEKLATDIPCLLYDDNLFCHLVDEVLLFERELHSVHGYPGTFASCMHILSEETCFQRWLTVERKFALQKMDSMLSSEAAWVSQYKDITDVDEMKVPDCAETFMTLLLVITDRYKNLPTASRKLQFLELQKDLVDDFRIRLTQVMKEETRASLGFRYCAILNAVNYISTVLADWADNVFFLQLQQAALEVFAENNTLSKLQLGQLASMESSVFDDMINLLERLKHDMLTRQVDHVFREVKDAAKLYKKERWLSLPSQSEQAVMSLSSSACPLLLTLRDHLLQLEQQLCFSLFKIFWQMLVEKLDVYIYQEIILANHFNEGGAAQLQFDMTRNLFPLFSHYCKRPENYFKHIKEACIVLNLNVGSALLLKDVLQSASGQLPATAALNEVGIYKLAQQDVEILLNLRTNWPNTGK
UniProt O14730: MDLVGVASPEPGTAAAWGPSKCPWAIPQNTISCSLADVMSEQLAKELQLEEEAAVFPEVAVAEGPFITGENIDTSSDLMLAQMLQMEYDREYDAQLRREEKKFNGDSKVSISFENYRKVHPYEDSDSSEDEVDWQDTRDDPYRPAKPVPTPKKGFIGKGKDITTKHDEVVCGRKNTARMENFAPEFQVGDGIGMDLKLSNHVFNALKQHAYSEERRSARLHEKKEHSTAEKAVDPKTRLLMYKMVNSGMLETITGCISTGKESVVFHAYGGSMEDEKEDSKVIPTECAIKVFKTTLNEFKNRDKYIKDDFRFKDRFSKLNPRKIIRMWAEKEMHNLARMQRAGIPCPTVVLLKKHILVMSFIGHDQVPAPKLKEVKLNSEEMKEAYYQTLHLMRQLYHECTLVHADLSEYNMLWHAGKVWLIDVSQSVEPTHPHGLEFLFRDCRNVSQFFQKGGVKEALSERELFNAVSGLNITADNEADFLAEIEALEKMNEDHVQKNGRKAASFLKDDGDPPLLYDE
UniProt P61586, whole entry, looked up: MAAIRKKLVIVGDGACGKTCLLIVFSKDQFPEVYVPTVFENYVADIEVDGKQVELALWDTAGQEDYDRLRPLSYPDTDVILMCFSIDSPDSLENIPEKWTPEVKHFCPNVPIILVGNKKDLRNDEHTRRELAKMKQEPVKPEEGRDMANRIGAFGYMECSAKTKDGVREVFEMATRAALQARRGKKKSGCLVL
UniProt Q9H9A7: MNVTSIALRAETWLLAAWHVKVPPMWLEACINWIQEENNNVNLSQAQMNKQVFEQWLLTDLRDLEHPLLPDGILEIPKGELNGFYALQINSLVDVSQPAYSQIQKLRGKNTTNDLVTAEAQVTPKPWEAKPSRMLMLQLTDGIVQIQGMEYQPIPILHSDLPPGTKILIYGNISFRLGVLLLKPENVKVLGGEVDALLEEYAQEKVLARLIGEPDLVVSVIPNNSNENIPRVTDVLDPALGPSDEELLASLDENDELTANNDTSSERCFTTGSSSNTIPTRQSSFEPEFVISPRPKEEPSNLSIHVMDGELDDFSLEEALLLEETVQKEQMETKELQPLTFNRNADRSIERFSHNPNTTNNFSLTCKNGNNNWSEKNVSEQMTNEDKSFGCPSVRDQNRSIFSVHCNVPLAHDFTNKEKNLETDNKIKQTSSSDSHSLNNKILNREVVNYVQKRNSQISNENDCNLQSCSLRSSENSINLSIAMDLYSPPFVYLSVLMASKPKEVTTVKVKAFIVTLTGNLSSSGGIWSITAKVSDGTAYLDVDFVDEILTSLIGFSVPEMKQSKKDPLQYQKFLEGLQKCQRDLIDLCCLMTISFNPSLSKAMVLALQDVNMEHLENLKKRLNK
UniProt P62745, whole entry, looked up: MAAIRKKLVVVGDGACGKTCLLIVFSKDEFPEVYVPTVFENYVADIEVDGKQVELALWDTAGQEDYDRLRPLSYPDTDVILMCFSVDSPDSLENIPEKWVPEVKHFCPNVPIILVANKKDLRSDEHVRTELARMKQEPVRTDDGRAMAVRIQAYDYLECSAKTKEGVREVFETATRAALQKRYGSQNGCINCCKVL
UniProt Q8IUF8: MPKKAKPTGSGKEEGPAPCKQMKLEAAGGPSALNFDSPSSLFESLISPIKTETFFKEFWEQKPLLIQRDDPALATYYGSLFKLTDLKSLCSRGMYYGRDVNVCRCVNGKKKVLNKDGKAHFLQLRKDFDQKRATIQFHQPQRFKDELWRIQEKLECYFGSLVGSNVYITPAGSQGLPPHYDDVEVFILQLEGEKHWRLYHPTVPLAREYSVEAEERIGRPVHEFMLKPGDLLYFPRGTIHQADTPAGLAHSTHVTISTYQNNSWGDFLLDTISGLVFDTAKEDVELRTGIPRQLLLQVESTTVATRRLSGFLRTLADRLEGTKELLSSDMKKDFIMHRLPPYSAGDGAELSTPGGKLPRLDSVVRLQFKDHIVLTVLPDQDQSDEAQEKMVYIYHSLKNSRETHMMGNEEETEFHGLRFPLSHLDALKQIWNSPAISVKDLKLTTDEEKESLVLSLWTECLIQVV
UniProt Q8IYW5, whole entry, looked up: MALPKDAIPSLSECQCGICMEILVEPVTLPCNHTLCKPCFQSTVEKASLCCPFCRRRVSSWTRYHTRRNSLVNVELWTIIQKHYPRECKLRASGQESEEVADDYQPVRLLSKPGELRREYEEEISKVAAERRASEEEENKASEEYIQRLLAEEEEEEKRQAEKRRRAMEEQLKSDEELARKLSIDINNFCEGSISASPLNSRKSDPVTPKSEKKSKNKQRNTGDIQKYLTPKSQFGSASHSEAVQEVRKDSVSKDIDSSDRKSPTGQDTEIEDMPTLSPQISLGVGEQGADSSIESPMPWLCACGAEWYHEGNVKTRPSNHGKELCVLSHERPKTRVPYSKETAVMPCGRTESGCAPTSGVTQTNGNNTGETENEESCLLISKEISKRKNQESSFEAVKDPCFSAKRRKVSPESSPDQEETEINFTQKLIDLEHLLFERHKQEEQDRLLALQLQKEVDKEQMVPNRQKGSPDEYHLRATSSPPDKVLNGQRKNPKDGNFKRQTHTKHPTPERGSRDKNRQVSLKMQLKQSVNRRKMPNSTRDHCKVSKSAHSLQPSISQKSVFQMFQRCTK
UniProt Q96BH1: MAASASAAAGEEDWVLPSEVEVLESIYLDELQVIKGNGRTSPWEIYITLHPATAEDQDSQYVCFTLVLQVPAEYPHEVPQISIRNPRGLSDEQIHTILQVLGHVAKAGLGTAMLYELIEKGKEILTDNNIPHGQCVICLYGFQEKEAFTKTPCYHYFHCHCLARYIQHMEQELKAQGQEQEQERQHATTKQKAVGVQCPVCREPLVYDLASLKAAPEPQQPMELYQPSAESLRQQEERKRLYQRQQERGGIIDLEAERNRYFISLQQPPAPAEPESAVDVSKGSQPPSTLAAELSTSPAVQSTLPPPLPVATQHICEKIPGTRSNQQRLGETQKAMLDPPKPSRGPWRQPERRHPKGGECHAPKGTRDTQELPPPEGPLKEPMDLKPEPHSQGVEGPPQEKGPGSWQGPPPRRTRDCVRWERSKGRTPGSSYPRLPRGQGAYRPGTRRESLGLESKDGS

What was measured:
Test in all cases: log2 fold change, soluble protein after heating vs DMSO (PISA); higher = thermal stabilisation; K562 lysate, 10 uM; active = over 0.2 and 3.5 SD of the protein, either way, in both replicates (recomputed)
vemurafenib = compound: CCCS(=O)(=O)Nc1ccc(F)c(C(=O)c2c[nH]c3ncc(-c4ccc(Cl)cc4)cc23)c1F [vemurafenib]
How it was run: (§1)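 Values give the log-two fold change in thermal stability against solvent controls, from duplicates. Crude K562 extract at 1 mg/mL protein, made by dounce homogenisation in PBS pH 7.4 with 1 mM MgCl2, was treated with 10 μM compound for 30 min. After 3 min heating across 48°C-58°C, aliquots were pooled, adjusted to 0.5% NP-40 at 4°C and centrifuged at 21,000xg for 90 min. The supernatant was measured by TMTpro 16plex LC-MS/MS with channel sums equalised.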

[1] = compound: CCCS(=O)(=O)Nc1ccc(F)c(C(=O)c2c[nH]c3ncc(Cl)cc23)c1F
How it was run: as §1

barasertib = compound: CCN(CCCOc1ccc2c(Nc3cc(CC(=O)Nc4cccc(F)c4)[nH]n3)ncnc2c1)CCOP(=O)(O)O [barasertib]
How it was run: as §1

[2] = compound: CC[C@@H]1C(=O)N(C)c2cnc(Nc3ccc(C(=O)NC4CCN(C)CC4)cc3OC)nc2N1C1CCCC1
How it was run: as §1

volasertib = compound: CC[C@@H]1C(=O)N(C)c2cnc(Nc3ccc(C(=O)N[C@H]4CC[C@H](N5CCN(CC6CC6)CC5)CC4)cc3OC)nc2N1C(C)C [volasertib]
How it was run: as §1

[3] = compound: CCn1c(C(=O)N(C2CC2)C2CC2)cc2c3c(ncn3C)c(Nc3cc(C)n(C)n3)nc21
How it was run: as §1

[4] = compound: CCn1cc(-c2ccnc3[nH]c(-c4cccc(CN(C)C)c4)cc23)c(-c2ccc(NC(=O)N(C)C)cc2)n1
How it was run: as §1

[5] = compound: CN1CCC(CNc2ccc3ncc(-c4cccc(OC(F)(F)F)c4)n3n2)CC1
How it was run: as §1

saracatinib = compound: CN1CCN(CCOc2cc(OC3CCOCC3)c3c(Nc4c(Cl)ccc5c4OCO5)ncnc3c2)CC1 [saracatinib]
How it was run: as §1

sotrastaurin = compound: CN1CCN(c2nc(C3=C(c4c[nH]c5ccccc45)C(=O)NC3=O)c3ccccc3n2)CC1 [sotrastaurin]
How it was run: as §1

alvocidib = compound: CN1CC[C@H](c2c(O)cc(O)c3c(=O)cc(-c4ccccc4Cl)oc23)[C@H](O)C1 [alvocidib]
How it was run: as §1

Tubastatin A = compound: CN1CCc2c(c3ccccc3n2Cc2ccc(C(=O)NO)cc2)C1 [Tubastatin A]
How it was run: as §1

[6] = compound: CNC(=O)C1=CC=CC=C1NC2=NC(=NC=C2Cl)NC3=C(C=C(C=C3)N4CCOCC4)OC
How it was run: as §1

defactinib = compound: CNC(=O)c1ccc(Nc2ncc(C(F)(F)F)c(NCc3nccnc3N(C)S(C)(=O)=O)n2)cc1 [defactinib]
How it was run: as §1

[7] = compound: CNc1nc(-c2ccc3c(N)n[nH]c3c2)cc(N2C[C@@H](C(=O)NC3CCCCC3)CC[C@H]2C)n1
How it was run: as §1

encorafenib = compound: COC(=O)N[C@@H](C)CNc1nccc(-c2cn(C(C)C)nc2-c2cc(Cl)cc(NS(C)(=O)=O)c2F)n1 [encorafenib]
How it was run: as §1

[8] = compound: COC(=O)[C@H](CCSC)NC(=O)C1=C(C=C(C=C1)NC[C@H](CS)N)C2=CC=CC=C2
How it was run: as §1

alisertib = compound: COc1cc(Nc2ncc3c(n2)-c2ccc(Cl)cc2C(c2c(F)cccc2OC)=NC3)ccc1C(=O)O [alisertib]
How it was run: as §1

[9] = compound: COc1cc2nc(-c3cc(F)ccc3O)nc(N[C@@H]3CNC[C@H]3C(C)(C)O)c2cc1OC
How it was run: as §1

gefitinib = compound: COc1cc2ncnc(Nc3ccc(F)c(Cl)c3)c2cc1OCCCN1CCOCC1 [gefitinib]
How it was run: as §1

Measured: log2 fold change

RPL11 (UniProt P62913)
inactive: vemurafenib 0.038 | [1] -0.011 | barasertib -0.029 | [2] 0.022 | volasertib -0.043 | [3] -0.023 | [4] -0.032 | [5] 0.001 | saracatinib -0.003 | sotrastaurin 0.031 | alvocidib 0.003 | Tubastatin A -0.005 | [6] -0.023 | defactinib -0.041 | [7] 0.005 | encorafenib -0.013 | [8] 0.026 | alisertib 0.011 | [9] -0.006 | gefitinib -0.002

RPAP1 (UniProt Q9BWH6)
inactive: vemurafenib -0.008 | [1] -0.012 | barasertib 0.012 | [2] -0.028 | volasertib -0.053 | [3] 0 | [4] -0.031 | [5] 0.008 | saracatinib 0.02 | sotrastaurin 0.01 | alvocidib -0.001 | Tubastatin A -0.077 | [6] 0.016 | defactinib -0.006 | [7] 0.007 | encorafenib 0.019 | [8] -0.069 | alisertib 0.013 | [9] 0.027 | gefitinib -0.007

RMDN1 (UniProt Q96DB5)
inactive: vemurafenib 0.032 | [1] -0.01 | barasertib 0.017 | [2] -0.006 | volasertib -0.017 | [3] 0.02 | [4] 0.01 | [5] -0.08 | saracatinib 0.006 | sotrastaurin -0.013 | alvocidib 0.025 | Tubastatin A 0.014 | [6] -0.001 | defactinib 0.024 | [7] -0.011 | encorafenib 0.003 | [8] -0.003 | alisertib -0.022 | [9] -0.051 | gefitinib -0.059

RPF2 (UniProt Q9H7B2)
inactive: vemurafenib 0.009 | [1] 0.029 | barasertib -0.067 | [2] -0.024 | volasertib -0.021 | [3] 0.022 | [4] 0.037 | [5] -0.217 | saracatinib -0.02 | sotrastaurin -0.009 | alvocidib 0.074 | Tubastatin A -0.094 | [6] 0.007 | defactinib -0.068 | [7] 0.049 | encorafenib -0.026 | [8] -0.055 | alisertib 0.082 | [9] -0.027 | gefitinib -0.005

RINT1 (UniProt Q6NUQ1)
inactive: vemurafenib 0.065 | [1] 0.022 | barasertib 0.095 | [2] -0.055 | volasertib -0.113 | [3] 0.088 | [4] -0.048 | [5] -0.044 | saracatinib 0.095 | sotrastaurin 0.058 | alvocidib 0.041 | Tubastatin A -0.083 | [6] 0.011 | defactinib 0.047 | [7] -0.072 | encorafenib 0.01 | [8] -0.017 | alisertib -0.086 | [9] 0.065 | gefitinib 0.035

RIOK3 (UniProt O14730)
active: Tubastatin A -0.273
inactive: vemurafenib 0.021 | [1] -0.004 | barasertib 0.004 | [2] -0.098 | volasertib -0.041 | [3] -0.032 | [4] -0.052 | [5] -0.024 | saracatinib -0.03 | sotrastaurin 0.013 | alvocidib -0.04 | [6] 0.029 | defactinib 0.018 | [7] 0.12 | encorafenib 0.058 | [8] 0.132 | alisertib -0.006 | [9] 0 | gefitinib 0.055

Two consecutive entries from above:
RPF2 (UniProt Q9H7B2)
inactive: vemurafenib 0.009 | [1] 0.029 | barasertib -0.067 | [2] -0.024 | volasertib -0.021 | [3] 0.022 | [4] 0.037 | [5] -0.217 | saracatinib -0.02 | sotrastaurin -0.009 | alvocidib 0.074 | Tubastatin A -0.094 | [6] 0.007 | defactinib -0.068 | [7] 0.049 | encorafenib -0.026 | [8] -0.055 | alisertib 0.082 | [9] -0.027 | gefitinib -0.005

RINT1 (UniProt Q6NUQ1)
inactive: vemurafenib 0.065 | [1] 0.022 | barasertib 0.095 | [2] -0.055 | volasertib -0.113 | [3] 0.088 | [4] -0.048 | [5] -0.044 | saracatinib 0.095 | sotrastaurin 0.058 | alvocidib 0.041 | Tubastatin A -0.083 | [6] 0.011 | defactinib 0.047 | [7] -0.072 | encorafenib 0.01 | [8] -0.017 | alisertib -0.086 | [9] 0.065 | gefitinib 0.035

(cont.)

RHOA (UniProt P61586)
inactive: vemurafenib 0.003 | [1] -0.005 | barasertib -0.07 | [2] 0.069 | volasertib 0.009 | [3] 0.042 | [5] -0.06 | saracatinib 0.009 | sotrastaurin 0 | alvocidib 0.093 | Tubastatin A -0.078 | [6] 0.087 | defactinib -0.029 | [7] -0.003 | encorafenib -0.042 | [8] -0.046 | alisertib 0.072 | [9] 0.029 | gefitinib 0.078
active: [4] 0.45

RPL10A (UniProt P62906)
inactive: vemurafenib 0.006 | [1] 0.001 | barasertib -0.018 | [2] 0.008 | volasertib 0.006 | [3] -0.024 | [4] 0.102 | [5] 0.021 | saracatinib 0 | sotrastaurin -0.006 | alvocidib 0.01 | Tubastatin A 0.035 | [6] -0.006 | defactinib 0.012 | [7] 0.015 | encorafenib 0.018 | [8] -0.003 | alisertib 0.008 | [9] 0.009 | gefitinib -0.014

RMI1 (UniProt Q9H9A7)
inactive: vemurafenib 0.025 | [1] 0.043 | barasertib -0.061 | [2] -0.173 | volasertib -0.108 | [3] -0.131 | [4] 0.013 | [5] -0.02 | saracatinib -0.054 | sotrastaurin 0.003 | alvocidib -0.065 | Tubastatin A 0.109 | [6] -0.029 | defactinib -0.037 | [7] 0.089 | encorafenib 0.022 | [8] 0.108 | alisertib 0.157 | [9] -0.141 | gefitinib -0.049

RHOB (UniProt P62745)
inactive: vemurafenib 0.014 | [1] 0.025 | barasertib -0.147 | [2] 0.03 | volasertib -0.009 | [3] 0.033 | [4] 0.117 | [5] 0.039 | saracatinib -0.153 | sotrastaurin -0.099 | alvocidib 0.052 | Tubastatin A -0.028 | [6] 0.018 | defactinib 0.024 | [7] 0.095 | encorafenib 0 | [8] -0.037 | alisertib 0.044 | [9] 0.046 | gefitinib 0.056

RPL23A (UniProt P62750)
inactive: vemurafenib 0.009 | [1] -0.003 | barasertib -0.007 | [2] 0.03 | volasertib -0.001 | [3] -0.014 | [4] 0.241 | [5] -0.113 | saracatinib -0.009 | sotrastaurin 0.005 | alvocidib 0.065 | Tubastatin A 0.046 | [6] 0.05 | defactinib -0.015 | [7] 0.024 | encorafenib -0.019 | [8] 0.013 | alisertib -0.006 | [9] 0.007 | gefitinib -0.044

RIOX2 (UniProt Q8IUF8)
inactive: vemurafenib 0.052 | [1] -0.022 | barasertib -0.008 | [2] 0.007 | volasertib 0.001 | [3] -0.038 | [4] 0.16 | [5] -0.102 | saracatinib -0.002 | sotrastaurin 0.05 | alvocidib 0.038 | Tubastatin A -0.002 | [6] 0.01 | defactinib 0.09 | [7] 0.014 | encorafenib -0.021 | [8] 0.184 | alisertib -0.009 | [9] 0.007 | gefitinib -0.011

RNF168 (UniProt Q8IYW5)
inactive: vemurafenib 0.152 | [1] 0.134 | barasertib 0.235 | [2] 0.128 | volasertib -0.062 | [3] 0.138 | [4] 0.015 | [5] 0.035 | saracatinib -0.007 | sotrastaurin -0.06 | alvocidib 0.037 | Tubastatin A -0.03 | [6] 0.068 | defactinib -0.026 | [7] -0.03 | encorafenib -0.046 | [8] -0.102 | alisertib -0.078 | [9] -0.043 | gefitinib 0.079

RPL13A (UniProt P40429)
inactive: vemurafenib 0.002 | [1] 0.017 | barasertib -0.023 | [2] -0.051 | volasertib 0 | [3] 0.012 | [4] -0.064 | [5] 0.031 | saracatinib -0.003 | sotrastaurin -0.01 | alvocidib 0.009 | Tubastatin A 0.018 | [6] -0.044 | defactinib -0.031 | [7] 0.022 | encorafenib -0.011 | [8] 0.027 | alisertib -0.006 | [9] 0.023 | gefitinib -0.006

RPL26L1 (UniProt Q9UNX3)
inactive: vemurafenib -0.018 | [1] -0.006 | barasertib 0.016 | [2] 0.003 | volasertib -0.013 | [3] 0.036 | [4] 0.202 | [5] -0.148 | saracatinib -0.004 | sotrastaurin -0.007 | alvocidib 0.091 | Tubastatin A -0.003 | [6] -0.006 | defactinib -0.007 | [7] 0.016 | encorafenib 0.003 | [8] 0.037 | alisertib -0.036 | [9] -0.01 | gefitinib -0.068

RNF25 (UniProt Q96BH1)
inactive: vemurafenib -0.005 | [1] 0.031 | barasertib -0.045 | [2] 0.024 | volasertib 0.015 | [3] -0.024 | [4] -0.011 | [5] 0.027 | saracatinib 0.027 | sotrastaurin -0.014 | alvocidib -0.006 | Tubastatin A 0.018 | [6] -0.006 | defactinib 0.001 | [7] 0.071 | encorafenib 0.004 | [8] -0.028 | alisertib -0.097 | [9] -0.021 | gefitinib -0.031
